Reference: PubChem BioAssay AID2417 (National Center for Advancing Translational Sciences (NCATS), 2010)
Among all 140,000 compounds or so, about 4,300 (3.1%) were called active. This list was built around the results that the source calls inconclusive (neither active nor inactive); the mix of calls is not that of the screen.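 Rule for the calls: active = readout at or below -70, meaning at least 70% loss of cells showing the perinucleolar compartment, a nuclear body marking cancer cells; inconclusive = readout between -30 and a set limit; inactive = the rest.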

Experiment: High Content Assay for Compounds that inhibit the Assembly of the Perinucleolar Compartment;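 note: plate controls were DMSO wells for no effect and camptothecin positive control wells for full effect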
Conditions: PC3M PTB-GFP, PNC prevalence imaging, 16 h; at 10 µM; stronger effect = lower value
Summary of the method: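 PC3M cells stably expressing PTB-GFP, 750–1000 cells/well, treated 16 h at 37 °C with compound (23 nl of library stock), in duplicate. After paraformaldehyde fixation and Hoechst stain, imaged at 20x; PNC prevalence scored by image analysis.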

| Structure (SMILES) | activity change (PNC), negative = inhibition |
| --- | --- |
| CCCCn1c(SCc2nnc(-c3ccccc3)o2)nc2c1c(=O)n(C)c(=O)n2C | inconclusive: -43.9% |
| Cc1ccc(Nc2nnns2)cc1 | inactive: 25.3% |
| Cc1ccc(CNC(=O)Cn2cccc2C(=O)c2ccccc2)cc1 | inconclusive: -32% |
| O=C(NC(=S)Nc1ccccc1Cl)c1csnn1 | inactive: -29.7% |
| O=C(CCCC(=O)N1CCc2ccccc21)N1CCc2ccccc21 | inactive: 3.68% |
| CN(C)c1ccc(/C=C/c2cc[n+]([O-])cc2)cc1 | inconclusive: -36.4% |
| COc1ccc(Cn2c(C)c(C)c(C#N)c2NC(=O)Nc2ccc(F)cc2)cc1 | inconclusive: -43.6% |
| COc1ccccc1C1/C(=C(/O)c2ccc(OC(C)C)cc2)C(=O)C(=O)N1c1cc(C)on1 (configuration not stated) | inconclusive: -31% |
| CCN(CC)S(=O)(=O)c1cccc(C(=O)NCCCN2CCOCC2)c1 | inconclusive: -72.5% |
| CCn1c(N)c(C(=O)NC)sc1=S | inconclusive: -49.4% |
| C=CCNC(=S)NNC(=O)CCC(O)CCCCC (configuration not stated) | inactive: 5.41% |
| O=C(CN1CCC(n2nnc3cc(C(F)(F)F)ccc32)CC1)Nc1ccc2c(c1)CCC2 | inconclusive: -34.7% |
| Cc1cccc(OCc2nc(C#N)c(N3CC(C)CC(C)C3)o2)c1 (configuration not stated) | inconclusive: -44.3% |
| CC(=O)c1c(C)[nH]c(C(=O)Nc2cc(C)ccc2C)c1C | inconclusive: -32.5% |
| COc1ccccc1NC(=O)C(=O)NCC1COc2ccccc2O1 (configuration not stated) | inconclusive: -77.2% |
| O=C(O)C1CC=CCC1C(=O)Nc1ccc(Oc2ccc(Cl)cc2)cc1 (configuration not stated) | inconclusive: -32.9% |
| Cc1ccccc1N1C(=O)c2cccc3c(N(C)CCO)ccc(c23)C1=O | active: -80.3% |
| CCN(CC)S(=O)(=O)c1ccc(Cl)c(C(=O)Nc2cc(C)nn2-c2ccccc2C(F)(F)F)c1 | inconclusive: -57.3% |
| N=c1c(C(=O)NC2CCCC2)cc2c(=O)n3ccccc3nc2n1CCN1CCOCC1 | inconclusive: -34.3% |
| CCCCNC(=O)/C(C#N)=C/c1cccnc1 | active: -106% |
| CCC(C)c1ccccc1NC(=O)C1CCCO1 (configuration not stated) | inconclusive: -43% |
| CC(C)COCC1CC2(CC(C)C(=O)CC2=O)C(=O)O1 (configuration not stated) | inactive: -28.2% |
| Cc1csc(NC(=O)CSc2nc3ccccc3s2)n1 | inactive: 13.2% |
| N#C/C(=C/c1ccc(N2CCCCC2)o1)C(=O)Nc1ccc2ccccc2c1 | active: -91.3% |

Copied from the list.
Cc1cccc(OCc2nc(C#N)c(N3CC(C)CC(C)C3)o2)c1 (configuration not stated) – activity change (PNC), negative = inhibition: inconclusive: -44.3%
COc1ccccc1C1/C(=C(/O)c2ccc(OC(C)C)cc2)C(=O)C(=O)N1c1cc(C)on1 (configuration not stated) – activity change (PNC), negative = inhibition: inconclusive: -31%

The list goes on.

| Structure (SMILES) | activity change (PNC), negative = inhibition |
| --- | --- |
| COCCCN1CN(S(=O)(=O)c2ccc(Cl)cc2)c2nc3ccccc3nc21 | inactive: -22.7% |
| CCOc1ccccc1C1CC(=O)Nc2cc3c(cc21)OCCO3 (configuration not stated) | active: -86.2% |
| NC(=O)c1ccccc1N/C=C/C(=O)c1ccc(F)cc1 | inconclusive: -37.9% |
| CC/C(C)=N/Nc1nc2sc3c(c2c(=O)[nH]1)CC(C)(C)OC3 | inconclusive: -69.6% |
| O=C(NCCNC(=O)C1CC2CCC1C2)C1CC2CCC1C2 (configuration not stated) | inconclusive: -49% |
| COc1ccc(OCc2ccc(C(=O)O)cc2)cc1 | inactive: 32.5% |
| COc1ccc(CCn2c(C)nc3c(c(=O)c4ccccc4n3C)c2=O)cc1 | inconclusive: -68.6% |
| Cn1c(=O)c2c(nc(CN3CCc4ccccc4C3)n2Cc2cccc(Cl)c2)n(C)c1=O | inactive: -9.4% |
| COCCN1C(=O)N[C@@H](c2ccccc2)C(C(C)=O)=C1C | inconclusive: -66.3% |
| O=C(CCC(=O)c1ccccc1)NCCc1c[nH]c2ccccc12 | inconclusive: -50.2% |
| COC(=O)C1=C(C)OC(N)=C(C#N)C1c1cccnc1 (configuration not stated) | inconclusive: -55.5% |
| Cc1nc(SCC(=O)Nc2ccc3c(c2)OCO3)c(C#N)c2c1CCCC2 | inconclusive: -43.6% |
| O=C(/C=C/c1cccs1)Nc1cccc(NC(=O)/C=C/c2cccs2)n1 | inconclusive: -36.9% |
| COc1ccc(CCN2C(=S)NC3CC2(C)Oc2ccc([N+](=O)[O-])cc23)cc1OC (configuration not stated) | inactive: 14.6% |
| CCN(CC)S(=O)(=O)c1cccc(-c2nnc(SCCOc3ccc(Cl)cc3)o2)c1 | inactive: 22.3% |
| Cc1ccc(N=C(c2cccs2)N2CCOCC2)cc1 | inconclusive: -40.8% |
| CCc1cccc(CC)c1NC(=S)NCCc1c(C)[nH]c2ccccc12 | inactive: -14% |
| CC(=O)N1CCN=C1SCc1ccc(F)cc1 | inconclusive: -71.1% |
| Cc1cc(C(=O)COc2ccccc2Cl)c(C)n1-c1ccc2c(c1)OCO2 | active: -106% |
| COc1ccc(S(=O)(=O)N2CCCC2C(=O)Nn2cnnc2)cc1 (configuration not stated) | inconclusive: -49.1% |
| CCOc1cc(NC(=O)c2ccco2)c(OCC)cc1NC(=O)Cc1cccc(OC)c1 | inconclusive: -50% |
| COc1ccc(C)cc1NC(=O)c1ccc(S(=O)(=O)N2CCOCC2)cc1 | inconclusive: -50.9% |
| CCc1nnc(NC(=O)CCC(=O)NC2CCCc3ccccc32)s1 (configuration not stated) | inactive: 30.6% |
